Experimental data reported in PMC7907794.
No constants are given. Whether binding was seen depends on the method and setting. Binding seen in cells or lysates may run through a third protein. Some binding calls cover weakened binding; strength is not graded here.

Target: T1, interferon regulatory factor 3 (UniProt Q14653)
T1 sequence: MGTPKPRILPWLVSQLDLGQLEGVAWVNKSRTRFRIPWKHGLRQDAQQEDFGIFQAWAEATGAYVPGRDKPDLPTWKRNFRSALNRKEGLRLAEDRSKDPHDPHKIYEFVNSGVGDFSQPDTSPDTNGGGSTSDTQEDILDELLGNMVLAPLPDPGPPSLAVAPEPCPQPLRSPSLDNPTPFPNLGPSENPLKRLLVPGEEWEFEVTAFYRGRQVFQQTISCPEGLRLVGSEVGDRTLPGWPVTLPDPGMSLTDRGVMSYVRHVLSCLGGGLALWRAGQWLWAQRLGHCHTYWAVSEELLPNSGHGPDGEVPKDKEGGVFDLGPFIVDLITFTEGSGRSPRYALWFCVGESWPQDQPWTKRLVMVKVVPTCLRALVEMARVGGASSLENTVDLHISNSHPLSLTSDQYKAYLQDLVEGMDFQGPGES
Assay: co-IP

B1: TBK1 (protein, UniProt Q9UHD2 1-729)
chain: MQSTSNHLWLLSDILGQGATANVFRGRHKKTGDLFAIKVFNNISFLRPVDVQMREFEVLKKLNHKNIVKLFAIEEETTTRHKVLIMEFCPCGSLYTVLEEPSNAYGLPESEFLIVLRDVVGGMNHLRENGIVHRDIKPGNIMRVIGEDGQSVYKLTDFGAARELEDDEQFVSLYGTEEYLHPDMYERAVLRKDHQKKYGATVDLWSIGVTFYHAATGSLPFRPFEGPRRNKEVMYKIITGKPSGAISGVQKAENGPIDWSGDMPVSCSLSRGLQVLLTPVLANILEADQEKCWGFDQFFAETSDILHRMVIHVFSLQQMTAHKIYIHSYNTATIFHELVYKQTKIISSNQELIYEGRRLVLEPGRLAQHFPKTTEENPIFVVSREPLNTIGLIYEKISLPKVHPRYDLDGDASMAKAITGVVCYACRIASTLLLYQELMRKGIRWLIELIKDDYNETVHKKTEVVITLDFCIRNIEKTVKVYEKLMKINLEAAELGEISDIHTKLLRLSSSQGTIETSLQDIDSRLSPGGSLADAWAHQEGTHPKDRNVEKLQVLLNCMTEIYYQFKKDKAERRLAYNEEQIHKFDKQKLYYHATKAMTHFTDECVKKYEAFLNKSEEWIRKMLHLRKQLLSLTNQCFDIEEEVSKYQEYTNELQETLPQKMFTASSGIKHTMTPIYPSSNTLVEMTLGMKKLKEEMEGVVKELAENNHILERFGSLTMDGGLRNVDCL
How did the binding turn out when B1 was run?
The binding was “binds”.
